Drawing on article PMC5553161, this text covers binding for one molecule.

In experiment [1] the target is One-Strep-tagged (OST) NS5A S225D of hepatitis C virus JFH-1 (genotype 2a) (hepatitis C virus JFH-1 (genotype 2a)). The experiment can be described thus: affinity purification with mass spectrometry; OST-tagged NS5A captured on Strep-Tactin Sepharose beads from 2 mg clarified lysate of SGR-harboring Huh7 cells (TAP lysis buffer: 50 mM Tris-HCl pH 7.5, 100 mM NaCl, 5% glycerol, 0.2% Nonidet P-40, 1.5 mM MgCl2; Benzonase), 60 min at 4°C; label-free LC-MS/MS, four purifications for each bait.

The target of experiment [2] is One-Strep-tagged (OST) wild-type NS5A of hepatitis C virus JFH-1 (genotype 2a) (hepatitis C virus JFH-1 (genotype 2a)). The description is as above.

Results are given in words; binding and its absence hold for the method and conditions named. Binding seen in cells or lysates may run through a third protein. A yes stands for co-enrichment or nearness to the bait. Other partners may have been found.

B1: bridging integrator 1 (protein, UniProt O00499 1-593)
chain: MAEMGSKGVTAGKIASNVQKKLTRAQEKVLQKLGKADETKDEQFEQCVQNFNKQLTEGTRLQKDLRTYLASVKAMHEASKKLNECLQEVYEPDWPGRDEANKIAENNDLLWMDYHQKLVDQALLTMDTYLGQFPDIKSRIAKRGRKLVDYDSARHHYESLQTAKKKDEAKIAKPVSLLEKAAPQWCQGKLQAHLVAQTNLLRNQAEEELIKAQKVFEEMNVDLQEELPSLWNSRVGFYVNTFQSIAGLEENFHKEMSKLNQNLNDVLVGLEKQHGSNTFTVKAQPSDNAPAKGNKSPSPPDGSPAATPEIRVNHEPEPAGGATPGATLPKSPSQLRKGPPVPPPPKHTPSKEVKQEQILSLFEDTFVPEISVTTPSQFEAPGPFSEQASLLDLDFDPLPPVTSPVKAPTPSGQSIPWDLWEPTESPAGSLPSGEPSAAEGTFAVSWPSQTAEPGPAQPAEASEVAGGTQPAAGAQEPGETAASEAASSSLPAVVVETFPATVNGTVEGGSGAGRLDLPPGFMFKVQAQHDYTATDTDELQLKAGDVVLVIPFQNPEEQDEGWLMGVKESDWNQHKELEKCRGVFPENFTERVP
With B1, the binding entry in experiment [1] and in experiment [2] was “binds” in each case.
